Values quoted from earlier work in patent US20100255088A1 (priority 2009, published 2010).
Some of these results come from one statement about several compounds together.

Conditions: sublingual

CC(=O)Oc1ccccc1C(=O)O [aspirin, acetyl salicylic acid]
absorption rate: less than 5%
